# PubChem BioAssay AID504793, Drosophila RNAi Screening Center | 2011
# Assay: 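Whole-genome screen for parts of the DNA damage checkpoint at G2/M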 (primary screen)
# System: Drosophila S2R+ cells
# Reagents: long dsRNA against Drosophila genes, about 0.25 µg dsRNA per well
# Timing: 4 days of dsRNA, then 4 hours of drug before read-out
# Treatment: doxorubicin 0.5 µM for 4 hours to cause double-strand breaks, in cells also given a low, harmless dose of dsRNA against nbs to sensitise the assay
# Measured: 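Mitotic index as the number of phospho-histone H3-positive cells in each well following doxorubicin, given as raw counts without normalisation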
# Scale: mitotic cells: higher = more cells in mitosis, weaker G2 arrest
# Rule for the call: 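a call needs confirmation in secondary tests, with other dsRNAs and a check of mitotic timing without damage, not just a high primary count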
# Meaning of the calls: active = confirmed in follow-up tests; inactive = not confirmed
# The deposit covers about 23,000 reagents; this is an unselected part of those with a known target gene and a result. In the full data, 62 (0.27%) got an active call. 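Calls come from follow-up tests whose scores are not deposited, so confirmed genes may have low counts here; counts are not normalised per plate.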 Raw values are not corrected between plates. The numbers tell different reagents against one gene apart. A plus sign joins genes that one reagent is predicted to hit.
The first 10 records, ahead of the listing:
Gene,reagent no.,"mitotic cells, replicate 1","mitotic cells, replicate 2",activity call
Mt2 (Methyltransferase 2),1,6,,inactive
CG13775,1,4,,inactive
CG13775,2,5,,inactive
CG3301,1,,,inactive
saturn,1,11,,inactive
saturn,2,12,,inactive
eEF1alpha2 (eukaryotic translation elongation factor 1 alpha 2),1,4,,inactive
eEF1alpha2 (eukaryotic translation elongation factor 1 alpha 2),2,12,,inactive
CG33630,1,3,,inactive
CG42446 + CG17931,1,3,,inactive

The list itself, from the start:
Gene,reagent no.,"mitotic cells, replicate 1","mitotic cells, replicate 2",activity call
Mt2 (Methyltransferase 2),1,6,,inactive
CG13775,1,4,,inactive
CG13775,2,5,,inactive
CG3301,1,,,inactive
saturn,1,11,,inactive
saturn,2,12,,inactive
eEF1alpha2 (eukaryotic translation elongation factor 1 alpha 2),1,4,,inactive
eEF1alpha2 (eukaryotic translation elongation factor 1 alpha 2),2,12,,inactive
CG33630,1,3,,inactive
CG42446 + CG17931,1,3,,inactive
Paris (Parkin Interacting Substrate),1,3,,inactive
Paris (Parkin Interacting Substrate),2,6,,inactive
Dpy-30L1 (Dpy-30-like 1),1,3,,inactive
Dpy-30L1 (Dpy-30-like 1),2,7,,inactive
ltl (larval translucida),1,11,,inactive
ltl (larval translucida),2,10,,inactive
CG4133,1,7,,inactive
Tif-IA,1,18,,inactive
Tif-IA,2,6,,inactive
CG1239,1,4,,inactive
CG1239,2,1,,inactive
SCAR,1,3,,inactive
SMSr (Sphingomyelin synthase related),1,7,,inactive
SMSr (Sphingomyelin synthase related),2,4,,inactive
CG13919,1,11,,inactive
CG33285,1,6,,inactive
CG33285,2,5,,inactive
Sap130 (Sin3A-associated protein 130),1,9,,inactive
Sap130 (Sin3A-associated protein 130),2,5,,inactive
dind (diamond),1,11,,inactive
dind (diamond),2,,,inactive
ChAT (Choline acetyltransferase),1,13,,inactive
ChAT (Choline acetyltransferase),2,7,,inactive
CG42562,1,5,,inactive
eEF1beta (eukaryotic translation elongation factor 1 beta),1,6,,inactive
eEF1beta (eukaryotic translation elongation factor 1 beta),2,6,,inactive
CG17272,1,13,,inactive
para (paralytic),1,12,,inactive
CG31661,1,9,,inactive
CG31661,2,9,,inactive
Gpo2 (Glycerophosphate oxidase 2),1,6,,inactive
"Alg11 (ALG11, alpha-1,2-mannosyltransferase)",1,3,,inactive
CG10077,1,7,,inactive
CG10077,2,7,,inactive
Cap-D2 (CAP-D2 condensin subunit),1,12,,inactive
Cap-D2 (CAP-D2 condensin subunit),2,20,,inactive
Mcm7 (Minichromosome maintenance 7),1,47,,active
Mcm7 (Minichromosome maintenance 7),2,64,,active
CG1943,1,3,,inactive
CNT2 (Concentrative nucleoside transporter 2),1,8,,inactive
eIF4H1 (eukaryotic translation initiation factor 4H1),1,10,,inactive
Or85f (Odorant receptor 85f),1,13,,inactive
DNAlig1 (DNA ligase 1),1,6,,inactive
ball (ballchen),1,22,,inactive
ball (ballchen),2,7,,inactive
Dgp-1,1,8,,inactive
Cpr65Au (Cuticular protein 65Au),1,7,,inactive
fd102C (forkhead domain 102C),1,8,,inactive
fd102C (forkhead domain 102C),2,6,,inactive
CG13771,1,4,,inactive
CG31054 (retired record),1,10,,inactive
in (inturned),1,4,,inactive
CG30082,1,7,,inactive
CCKLR-17D1 (Cholecystokinin-like receptor at 17D1),1,7,,inactive
CCKLR-17D1 (Cholecystokinin-like receptor at 17D1),2,15,,inactive
CCKLR-17D1 (Cholecystokinin-like receptor at 17D1),3,8,,inactive
CG34169,1,7,,inactive
mIF2 (mitochondrial translation initiation factor 2),1,7,,inactive
mIF2 (mitochondrial translation initiation factor 2),2,6,,inactive
GluRIIA (Glutamate receptor IIA),1,,,inactive
CG13073,1,3,,inactive
CG13073,2,11,,inactive
CG4716,1,14,,inactive
CG4716,2,7,,inactive
Rpp25 (Ribonuclease P/MRP subunit p25),1,13,,inactive
PolD1 (DNA polymerase delta subunit 1),1,5,,inactive
PolD1 (DNA polymerase delta subunit 1),2,3,,inactive
CG11227,1,17,,inactive
CG11227,2,6,,inactive
nAChRalpha1 (nicotinic Acetylcholine Receptor alpha1),1,10,,inactive
nAChRalpha1 (nicotinic Acetylcholine Receptor alpha1),2,4,,inactive
nAChRalpha1 (nicotinic Acetylcholine Receptor alpha1),3,47,,inactive
nAChRalpha1 (nicotinic Acetylcholine Receptor alpha1),4,10,,inactive
CG8927,1,9,,inactive
CG8927,2,6,,inactive
S6kII (Ribosomal protein S6 kinase II),1,4,,inactive
CG5321,1,5,,inactive
CG5321,2,18,,inactive
CG5321,3,6,,inactive
CG10154,1,2,,inactive
CR16735 (pseudo),1,6,,inactive
fbl (fumble),1,8,,inactive
vir (virilizer),1,8,,inactive
vir (virilizer),2,9,,inactive
CG6878,1,9,,inactive
Cpr64Aa (Cuticular protein 64Aa),1,4,,inactive
Cpr64Aa (Cuticular protein 64Aa),2,4,,inactive
Ythdf (YTH N6-methyladenosine RNA binding protein),1,7,,inactive
Ythdf (YTH N6-methyladenosine RNA binding protein),2,18,,inactive
CG4676,1,3,,inactive
CG3164,1,3,,inactive
Arms (Ankyrin repeat-rich membrane spanning),1,7,13,inactive
Arms (Ankyrin repeat-rich membrane spanning),2,3,,inactive
Arms (Ankyrin repeat-rich membrane spanning),3,9,,inactive
Arms (Ankyrin repeat-rich membrane spanning),4,9,,inactive
Arms (Ankyrin repeat-rich membrane spanning),5,8,,inactive
CG4982,1,4,,inactive
hid (head involution defective),1,4,,inactive
hid (head involution defective),2,4,,inactive
Edg78E (Ecdysone-dependent gene 78E),1,2,,inactive
Edg78E (Ecdysone-dependent gene 78E),2,6,,inactive
